{
  "source": "paper PMC3262814",
  "about": "“Purification and Activity Testing of the Full-Length YycFGHI Proteins of Staphylococcus aureus” (PLoS ONE, 2012)",
  "target": "YycF-C-His6 (Staphylococcus aureus SA137/93A) (UniProt Q2G2U6)",
  "assay": "native gel or EMSA; blue native PAGE (BN-PAGE) of single proteins; 4-20% Tris-HCl gradient gel; 5 µg of YycF, YycH, YycI or 10 µg of YycG, YycG(Y306N) in 10 µl dialysis buffer I (50 mM NaH2PO4, 300 mM NaCl, 50% glycerol, pH 8) with Coomassie Brilliant Blue R250; 80 V, 4-7°C; masses calibrated with soluble markers and a conversion factor; both purified",
  "note": "These are yes or no findings as the source states them, for the method shown.",
  "data": [
    {"substance": "YycF-C-His6 (from UniProt Q2G2U6 1-233)", "values": [
      {"measurement": "binding", "value": "no binding (tested: 5 µg in 10 µl)"}
    ]}
  ]
}
